Consider one substance from PMC6145937.

The chains behind the UniProt entries cited, without tags or fusion partners. Residues count along the entry.
UniProt P08592, residues 18-770: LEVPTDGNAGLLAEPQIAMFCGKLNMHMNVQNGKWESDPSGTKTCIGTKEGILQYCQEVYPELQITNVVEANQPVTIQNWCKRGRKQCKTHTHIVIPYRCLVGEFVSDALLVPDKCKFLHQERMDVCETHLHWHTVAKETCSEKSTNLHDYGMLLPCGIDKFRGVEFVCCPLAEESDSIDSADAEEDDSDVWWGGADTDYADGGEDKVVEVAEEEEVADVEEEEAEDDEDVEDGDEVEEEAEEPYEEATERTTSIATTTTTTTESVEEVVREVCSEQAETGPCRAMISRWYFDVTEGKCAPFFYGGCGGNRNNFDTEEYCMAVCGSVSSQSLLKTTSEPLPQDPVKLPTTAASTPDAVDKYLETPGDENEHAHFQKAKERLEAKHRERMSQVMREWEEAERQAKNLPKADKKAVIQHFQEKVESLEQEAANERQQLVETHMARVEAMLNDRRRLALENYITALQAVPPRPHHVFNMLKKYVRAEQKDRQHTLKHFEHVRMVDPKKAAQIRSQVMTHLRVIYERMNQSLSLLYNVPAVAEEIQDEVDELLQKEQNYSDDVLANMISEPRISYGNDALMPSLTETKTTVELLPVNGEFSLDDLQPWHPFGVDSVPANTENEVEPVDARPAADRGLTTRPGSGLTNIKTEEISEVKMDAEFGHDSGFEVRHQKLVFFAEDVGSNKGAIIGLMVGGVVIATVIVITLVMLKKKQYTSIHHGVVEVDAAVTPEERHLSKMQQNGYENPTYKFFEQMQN

No constants are given. Whether binding was seen depends on the method and setting. In cells and extracts the contact can be indirect. Some entries that bind do so weakly or less than the wild type.

The target in this experiment is T1, Vangl2 (van Gogh-like 2), endogenous in rat primary cortical neurons (rat (endogenous in primary cortical neurons)) (UniProt P84889).
T1 sequence: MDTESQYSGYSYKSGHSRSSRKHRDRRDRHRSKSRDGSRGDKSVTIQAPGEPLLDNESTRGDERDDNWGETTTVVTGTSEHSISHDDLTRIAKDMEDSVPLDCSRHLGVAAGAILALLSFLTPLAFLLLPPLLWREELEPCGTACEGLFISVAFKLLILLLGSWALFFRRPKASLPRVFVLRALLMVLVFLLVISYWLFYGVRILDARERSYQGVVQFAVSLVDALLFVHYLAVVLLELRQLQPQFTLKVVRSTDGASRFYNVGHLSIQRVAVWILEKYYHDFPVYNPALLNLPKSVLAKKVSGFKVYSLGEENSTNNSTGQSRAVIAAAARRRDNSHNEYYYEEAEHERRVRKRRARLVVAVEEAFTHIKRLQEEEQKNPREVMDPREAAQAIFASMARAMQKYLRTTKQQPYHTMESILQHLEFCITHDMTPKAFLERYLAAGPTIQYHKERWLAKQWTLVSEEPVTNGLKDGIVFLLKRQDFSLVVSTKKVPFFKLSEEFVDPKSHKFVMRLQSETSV
Nature of the experiment: co-IP; lysate of rat primary cortical neurons (21 d.i.c.), 1% Triton X-100 lysis buffer pH 7.5; IP with anti-LRP6 or anti-Vangl2 antibody on Protein G magnetic beads; APP detected by western blot. For orientation: Immunoblotting shows a protein as a band on a membrane.

As for “Amyloid Precursor Protein (APP), endogenous in rat primary cortical neurons (from UniProt P08592 18-770)”, the binding result was “binds”.
